For at least one compound, name, drawing or mass did not settle the structure. *1 amine or outer side, *2 acyl side, *3 side chain or, on linkers, in order; H or OH if unused. Where a SMILES comes first, the peptide text is derived from it. Side-chain parts run from the residue outwards. [ ]: non-standard residue; d: D form. The star is where a group is joined. C20 diacid = O=C(O)CCCCCCCCCCCCCCCCCCC(=O)*; γGlu = O=C(O)[C@H](CCC(=O)[*:2])N[*:1]; αMeL = CC(C)C[C@](C)(N)C(=O)O; AEEA = NCCOCCOCC(=O)O; Aib = CC(C)(N)C(=O)O
Test system: diet-induced obese (DIO) C57BL/6 mice
Experiment: Diet-induced obese C57BL/6 mice, 15-day study
Format: in vivo, mouse
Conditions: for Body weight Δ from vehicle: day 15, DIO mice; for Body weight % change: days 1 to 15, DIO mice
Protocol: The exemplary incretin analogs as described herein are proposed as a treatment not only for diabetes but also for metabolic syndrome, which is a collection of co-morbidities (dyslipidemia, obesity, hepatic steatosis, etc.) associated with insulin resistance and diabetes. To investigate the effects of the exemplary analogs on parameters such as weight loss, metabolism, body composition and hepatic steatosis, they were dosed to C57BL/6 diet-induced obese (DIO) mice. These animals, although not diabetic, display insulin resistance, dyslipidemia and hepatic steatosis, all characteristics of metabolic syndrome, after being placed on a high-fat diet for 18 weeks.
Specifically, DIO male C57BL/6 mice 24 to 25 weeks old maintained on a calorie-rich diet are used in the following studies. Mice are individually housed in a temperature-controlled (24° C.) facility with 12-hour light/dark cycle (lights on 22:00) and free access to food (TD95217) and water. After a minimum of 2 weeks acclimation to the facility, the mice are randomized according to their body weight, so each experimental group of animals would have similar body weight. The body weights range from 40 to 51 g.
All groups contain 5-6 mice. Vehicle, exemplary analogs dissolved in vehicle (40 mM Tris-HCl at pH 8.0), and semaglutide dissolved in vehicle are administered by subcutaneous (SC) injection (10 mL/kg) to ad libitum fed DIO mice 30 to 90 minutes prior to the onset of the dark cycle every 3 days for 15 days. SC injections are made on Day 1, 4, 7, 10 and 13. Body weight and food intake are measured daily throughout the study.
Absolute changes in body weight are calculated by subtracting the body weight of the same animal prior to the first injection of vehicle, analog or semaglutide. On Days 0 and 15, total fat mass is measured by nuclear magnetic resonance (NMR) using an Echo Medical System Instrument (Houston, Tex.). On Day 15, animals are sacrificed prior to dark photoperiod, and the livers are removed and frozen. Liver triglycerides, determined from homogenates of livers collected at sacrifice, and plasma cholesterol are measured on a Hitachi Modular P clinical analyzer.
Data are presented as mean±SEM of 5-6 animals per group in Tables 7 and 8 below. Statistical analysis is performed using repeated measures ANOVA, followed by Dunnett's method for multiple comparisons. Significant differences are identified at p<0.05.

[1] = 3 nmol/kg, after fifteen days, DIO mice, mean ± SEM

Compound: CC[C@H](C)[C@H](NC(=O)[C@H](Cc1ccccc1)NC(=O)[C@H](C)NC(=O)C(C)(C)NC(=O)[C@H](CCC(N)=O)NC(=O)[C@H](C)NC(=O)[C@H](CCCCNC(=O)COCCOCCNC(=O)CC[C@H](NC(=O)CCCCCCCCCCCCCCCCCCC(=O)O)C(=O)O)NC(=O)[C@H](CCCCN)NC(=O)[C@H](CC(=O)O)NC(=O)[C@H](CC(C)C)NC(=O)[C@](C)(CC(C)C)NC(=O)[C@@H](NC(=O)[C@H](CO)NC(=O)[C@H](Cc1ccc(O)cc1)NC(=O)[C@H](CC(=O)O)NC(=O)[C@H](CO)NC(=O)[C@@H](NC(=O)[C@H](Cc1ccccc1)NC(=O)[C@@H](NC(=O)CNC(=O)[C@H](CCC(N)=O)NC(=O)C(C)(C)NC(=O)[C@@H](N)Cc1ccc(O)cc1)[C@@H](C)O)[C@@H](C)O)[C@@H](C)CC)C(=O)N[C@@H](CCC(=O)O)C(=O)N[C@@H](Cc1ccc(O)cc1)C(=O)N[C@@H](CC(C)C)C(=O)N[C@@H](CC(C)C)C(=O)N[C@@H](CCC(=O)O)C(=O)NC(C)(C)C(=O)NCC(=O)N1CCC[C@H]1C(=O)N[C@@H](CO)C(=O)N[C@@H](CO)C(=O)NC(C)(C)C(=O)N[C@@H](C)C(=O)N1CCC[C@H]1C(=O)N1CCC[C@H]1C(=O)N1CCC[C@H]1C(=O)N[C@@H](CO)C(N)=O [Example 14] (H-Y[Aib]QGTFTSDYSI[αMeL]LDKK([AEEA-γGlu-C20 diacid])AQ[Aib]AFIEYLLE[Aib]GPSS[Aib]APPPS-NH2; N-terminus assumed)
- Body weight Δ from vehicle (3 nmol/kg SC every 3 days): -6.12 ± 0.80 g
- Body weight % change (3 nmol/kg SC every 3 days): −13.38 ± 1.80%
- ALT [1]: 31.4 ± 2.79 IU/L
- Cholesterol [1]: 164.8 ± 5.85 mg/dL
- Glucose [1]: 111.5 ± 1.77 mg/dL
- Liver Triglycerides [1]: 63.1 ± 7.3 mg/g tissue
- Plasma Insulin [1]: 1971 ± 499.8 pg/mL
- Body weight Δ from vehicle (10 nmol/kg SC every 3 days): -14.76 ± 1.06 g
- Body weight % change (10 nmol/kg SC every 3 days): −32.32 ± 2.49%
- Body weight Δ from vehicle (30 nmol/kg SC every 3 days): -20.04 ± 2.40 g
- Body weight % change (30 nmol/kg SC every 3 days): −45.26 ± 4.79%
